These results are taken from paper PMC3510516.

Chains of the proteins cited; added tags and fusions are not shown. Residues count along the entry.
UniProt P05653, residues 500-808: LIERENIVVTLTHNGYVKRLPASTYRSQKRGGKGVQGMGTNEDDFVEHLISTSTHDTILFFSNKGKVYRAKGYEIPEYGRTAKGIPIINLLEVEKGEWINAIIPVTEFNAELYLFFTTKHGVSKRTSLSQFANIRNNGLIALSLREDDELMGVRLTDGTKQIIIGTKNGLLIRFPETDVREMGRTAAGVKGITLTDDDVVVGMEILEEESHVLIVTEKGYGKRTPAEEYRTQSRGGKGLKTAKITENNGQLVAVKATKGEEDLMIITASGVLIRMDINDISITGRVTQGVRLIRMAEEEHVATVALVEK

This assay concerns the target Bacillus subtilis GyrA C-terminal domain (amino acids 500-808) (Bacillus subtilis) (UniProt P05653). In words: SEC; calibrated 16/60 Superdex 200-pg column, 50 mM Tris-HCl pH 7.5, 300 mM NaCl, 10 mM MgCl2, 2 mM beta-mercaptoethanol; last step of the purification; both purified.

No constants are given. Whether binding was seen depends on the method and setting.

For the substance “Bacillus subtilis GyrA C-terminal domain (amino acids 500-808) (from UniProt P05653 500-808) (domain or fragment)”, the binding entry is reported as “no binding”.
